Measured values reported in doi:10.1101/2021.10.18.464913.

Molecular target: T1, Kir6.2 with C-terminal GFP tag from Mus musculus (Mus musculus) (UniProt Q61743)
T1 sequence: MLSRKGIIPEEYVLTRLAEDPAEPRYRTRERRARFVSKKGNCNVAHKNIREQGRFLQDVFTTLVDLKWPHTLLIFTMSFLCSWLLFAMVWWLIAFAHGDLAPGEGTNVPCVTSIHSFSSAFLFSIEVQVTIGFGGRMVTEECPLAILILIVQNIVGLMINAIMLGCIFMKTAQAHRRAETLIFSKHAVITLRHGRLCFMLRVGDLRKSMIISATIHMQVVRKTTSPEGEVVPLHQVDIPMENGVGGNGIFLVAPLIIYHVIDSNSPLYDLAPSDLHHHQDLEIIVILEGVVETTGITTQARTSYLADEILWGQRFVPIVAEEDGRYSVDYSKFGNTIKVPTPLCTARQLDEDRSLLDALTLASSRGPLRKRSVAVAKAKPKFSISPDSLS
Test: SEC

SUR1 of Mesocricetus auratus (from UniProt A0A1U7R319)
binding: binds

These are yes or no findings as the source states them, for the method shown. Binding can be weak; no strength is given. Where a sequence is shown, tags or fusion partners need not be part of it.
